Chains of the proteins cited; added tags and fusions are not shown. Lines headed by an entry give the natural chain unless they say otherwise; changes in a name come on top.
UniProt Q6ZWH5: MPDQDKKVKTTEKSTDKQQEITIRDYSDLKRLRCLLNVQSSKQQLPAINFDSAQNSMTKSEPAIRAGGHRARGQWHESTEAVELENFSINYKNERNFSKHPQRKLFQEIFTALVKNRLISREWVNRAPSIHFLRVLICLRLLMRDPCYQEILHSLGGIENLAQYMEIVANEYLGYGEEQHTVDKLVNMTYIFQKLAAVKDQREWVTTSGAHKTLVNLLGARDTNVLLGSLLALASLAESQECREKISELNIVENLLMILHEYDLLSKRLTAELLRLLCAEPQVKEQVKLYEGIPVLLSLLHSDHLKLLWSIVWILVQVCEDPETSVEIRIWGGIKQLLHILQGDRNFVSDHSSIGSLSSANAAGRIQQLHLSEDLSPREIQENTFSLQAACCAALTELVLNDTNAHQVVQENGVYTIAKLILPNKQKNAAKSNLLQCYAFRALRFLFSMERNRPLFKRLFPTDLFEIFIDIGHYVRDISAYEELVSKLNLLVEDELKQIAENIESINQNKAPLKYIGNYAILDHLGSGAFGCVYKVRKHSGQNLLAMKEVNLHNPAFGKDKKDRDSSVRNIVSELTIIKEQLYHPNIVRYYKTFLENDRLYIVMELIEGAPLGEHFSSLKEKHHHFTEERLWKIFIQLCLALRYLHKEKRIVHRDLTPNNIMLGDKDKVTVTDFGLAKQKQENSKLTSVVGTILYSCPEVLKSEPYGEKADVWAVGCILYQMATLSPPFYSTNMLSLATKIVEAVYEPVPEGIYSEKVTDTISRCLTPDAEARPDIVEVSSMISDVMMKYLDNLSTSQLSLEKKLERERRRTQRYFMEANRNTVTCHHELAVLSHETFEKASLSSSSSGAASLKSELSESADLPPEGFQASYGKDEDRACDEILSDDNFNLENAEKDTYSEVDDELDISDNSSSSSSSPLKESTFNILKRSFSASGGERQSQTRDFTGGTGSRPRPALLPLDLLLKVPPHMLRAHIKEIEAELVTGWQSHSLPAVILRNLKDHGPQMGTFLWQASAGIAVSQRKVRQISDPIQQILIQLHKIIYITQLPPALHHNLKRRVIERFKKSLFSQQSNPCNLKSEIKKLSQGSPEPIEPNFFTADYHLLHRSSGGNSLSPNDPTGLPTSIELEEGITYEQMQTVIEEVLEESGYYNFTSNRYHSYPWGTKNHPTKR
UniProt O15169: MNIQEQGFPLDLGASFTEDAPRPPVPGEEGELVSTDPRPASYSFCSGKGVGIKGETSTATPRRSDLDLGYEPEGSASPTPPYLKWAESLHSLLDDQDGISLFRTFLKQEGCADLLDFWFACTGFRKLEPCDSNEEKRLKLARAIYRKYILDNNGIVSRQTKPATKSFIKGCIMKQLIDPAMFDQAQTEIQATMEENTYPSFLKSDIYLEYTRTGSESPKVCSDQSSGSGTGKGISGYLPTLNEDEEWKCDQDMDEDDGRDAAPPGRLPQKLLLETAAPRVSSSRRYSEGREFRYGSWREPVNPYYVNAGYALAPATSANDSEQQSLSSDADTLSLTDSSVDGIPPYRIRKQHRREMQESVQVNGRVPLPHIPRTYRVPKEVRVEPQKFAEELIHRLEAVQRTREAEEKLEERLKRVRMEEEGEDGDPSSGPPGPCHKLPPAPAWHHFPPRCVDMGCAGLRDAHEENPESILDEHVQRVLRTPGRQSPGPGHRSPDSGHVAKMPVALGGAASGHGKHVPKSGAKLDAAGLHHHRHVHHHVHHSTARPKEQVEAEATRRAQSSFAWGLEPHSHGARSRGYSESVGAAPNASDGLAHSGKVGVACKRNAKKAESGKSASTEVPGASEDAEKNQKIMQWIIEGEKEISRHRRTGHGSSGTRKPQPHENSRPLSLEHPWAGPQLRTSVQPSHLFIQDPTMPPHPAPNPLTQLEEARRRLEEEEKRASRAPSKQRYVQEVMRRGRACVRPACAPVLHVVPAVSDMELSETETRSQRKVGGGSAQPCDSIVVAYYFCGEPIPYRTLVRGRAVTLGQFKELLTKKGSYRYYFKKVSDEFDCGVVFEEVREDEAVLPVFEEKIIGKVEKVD
UniProt P35222: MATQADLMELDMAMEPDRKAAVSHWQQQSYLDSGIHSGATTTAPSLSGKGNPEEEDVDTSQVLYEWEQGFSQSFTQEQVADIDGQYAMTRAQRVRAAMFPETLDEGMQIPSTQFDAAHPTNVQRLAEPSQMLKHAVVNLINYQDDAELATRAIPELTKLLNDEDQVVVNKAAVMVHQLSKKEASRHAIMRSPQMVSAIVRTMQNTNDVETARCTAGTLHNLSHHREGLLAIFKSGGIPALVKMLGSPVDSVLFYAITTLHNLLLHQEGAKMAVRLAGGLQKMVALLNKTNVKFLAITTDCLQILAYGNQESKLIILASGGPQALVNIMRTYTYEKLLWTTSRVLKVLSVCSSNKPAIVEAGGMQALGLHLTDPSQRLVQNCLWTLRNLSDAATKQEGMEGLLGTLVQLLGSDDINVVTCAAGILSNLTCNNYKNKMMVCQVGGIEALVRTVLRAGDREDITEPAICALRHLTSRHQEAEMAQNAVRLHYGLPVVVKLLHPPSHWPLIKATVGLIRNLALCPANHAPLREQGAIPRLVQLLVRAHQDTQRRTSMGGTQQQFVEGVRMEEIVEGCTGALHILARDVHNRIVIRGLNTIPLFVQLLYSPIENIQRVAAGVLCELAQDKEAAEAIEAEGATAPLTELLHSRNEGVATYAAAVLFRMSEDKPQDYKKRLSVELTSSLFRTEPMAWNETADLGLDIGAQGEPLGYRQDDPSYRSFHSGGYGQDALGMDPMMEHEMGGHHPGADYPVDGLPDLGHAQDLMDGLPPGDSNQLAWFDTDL

In doi:10.1101/2022.12.23.521717:

Target: Flag-tagged kinase-dead Nek10 (human) (UniProt Q6ZWH5)
Test: co-IP

| binding | Substance |
| --- | --- |
| binds weakly | Myc-tagged Axin (from UniProt O15169 1-862) |
| no binding | N-terminal HA-tagged wild-type β-catenin (from UniProt P35222 1-781) |

No constants are given. Whether binding was seen depends on the method and setting. In cells and extracts the contact can be indirect. Binding calls can cover weak binding; strength is not graded here.
